Measured values: PubChem BioAssay AID624254 (Broad Institute, 2012)
Inconclusive results, whose numbers are uncertain, are shown with a selection of clear calls. Activity calls are given as the source filed them. No rule for the calls is given here.

test: Quorum luxo inducers, light production, v cholerae bh1651 luxod47e, confirmatory dose response (AID 624254); settings: luciferase light induction, 6 h; at 50 µM (top of the series)

Structure (SMILES) | activation (light increase)
Cc1ccc2nc(SCc3nnc(-c4ccccc4Br)o3)[nH]c2c1 | inactive: -50%
Cc1ccc(S(=O)(=O)NCc2cccnc2)cc1C(=O)NC1CCCCC1 | inconclusive: -25%
O=C(Nc1ccc(-c2cn3ccsc3n2)cc1)c1ccc(F)c(S(=O)(=O)N2CCOCC2)c1 | inconclusive: -25%
Cc1cccc(C(=O)N2c3ccccc3C(=O)OC2c2ccc3c(c2)OCO3)c1 (stereo not given) | inconclusive: -25%
CCCOC(=O)c1ccc(NC(=O)C2CCCO2)cc1 (stereo not given) | inactive: -25%
COc1ccccc1NC(=O)COC(=O)c1cn(C)c2ccccc12 | inconclusive: -26.7%
Cc1nn(-c2ccccc2)c(C)c1NC(=O)COC(=O)c1cc(Br)ccc1O | inconclusive: 0%
Cc1nn(CC(O)CN2c3ccccc3Sc3ccccc32)c(C)c1Br (stereo not given) | inconclusive: 0%
CCOC(=O)C1(CCOc2ccccc2)CCN(Cc2cc(OC)cc(OC)c2)CC1 | inactive: -50%
CCc1ccc(C(=O)OCC(=O)NC2CCCC2)cc1 | inactive: 50%
COc1ccccc1CCN1CCCC(CN(C)C(=O)c2ccco2)C1 (stereo not given) | inactive: -25%
CCCc1cc(=O)n2[nH]cc(-c3ccc(Cl)cc3)c2n1 | inconclusive: -50%
CC1CCc2nn(CC(=O)NC3CCCC3)cc2C1 (stereo not given) | inconclusive: 25%
CCCOc1ccc(C2C(C(=O)c3ccc(C)o3)=C(O)C(=O)N2CCN2CCOCC2)cc1OC (stereo not given) | inconclusive: 25%
CC(C)Oc1ccc(NS(=O)(=O)c2cn(C)cn2)cc1 | inconclusive: 0%

Two entries picked at random from those above, as already listed:
Structure (SMILES) | activation (light increase)
CCCc1cc(=O)n2[nH]cc(-c3ccc(Cl)cc3)c2n1 | inconclusive: -50%
Cc1ccc2nc(SCc3nnc(-c4ccccc4Br)o3)[nH]c2c1 | inactive: -50%
